Reference: PMC3441716
No constants are given. Whether binding was seen depends on the method and setting. In cells and extracts the contact can be indirect. Some binding calls cover weakened binding; strength is not graded here. Where a sequence is shown, tags or fusion partners need not be part of it.

How the values were obtained:
[1] = molecular target: T1, His-tagged CnuK9E (Cnu with a lysine to glutamic acid substitution at residue 9) (E. coli) (UniProt P64467); test: pull-down; H-NS co-eluting with His-tagged Cnu or CnuK9E from a nickel-affinity column during His-tag based purification (Fig. S1)
T1 sequence: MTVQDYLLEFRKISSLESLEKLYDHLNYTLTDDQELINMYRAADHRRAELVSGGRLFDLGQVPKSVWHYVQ

[2] = molecular target: T2, His-tagged Cnu (OriC-binding nucleoid protein), wild type (E. coli) (UniProt P64467); test: as above
T2 sequence: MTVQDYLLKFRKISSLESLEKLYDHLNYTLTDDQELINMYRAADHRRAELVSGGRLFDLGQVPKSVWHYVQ

binding [1]: binds
binding [2]: binds
B1: H-NS (histone-like nucleoid structuring protein) (protein, UniProt P0ACF8 1-137)
chain: MSEALKILNNIRTLRAQARECTLETLEEMLEKLEVVVNERREEESAAAAEVEERTRKLQQYREMLIADGIDPNELLNSLAAVKSGTKAKRAQRPAKYSYVDENGETKTWTGQGRTPAVIKKAMDEQGKSLDDFLIKQ
